# The list shows a part of the results.
# B1: GS7807Q-bfa-507-19-507 (Bacteroides fragilis) (protein)
# chain: ASCNKFDDLNTNPDAATKVTAPMLATKLILNITQQGSAKNFVYHSMLSKQIAWSENASDEQYNLFGRTDFDGYTILTNCQKMVDAANEGDKDSYAALAKFMKAYKLFYKSLEVGDIPYSDALKGEEGVQKPKYDTQKEVMRQVLEDLEEAYTLFSSGSDFDGDPIFGGDTENWKKTVVAFELKVLTHLCKKDTDADLKVKERFARLVSSGSLMTSNADNFQLVYSNKAGQLYPFYYTQNKHSDYLMMSSVIIDNLKKFNDYRMFYYASPAKAQTDKGIKDSEWDAYLSIDPSDSYSNISVLYGKGEFCLANLRYTRVPEGEPLMRLSYAEQNFILAEGAVRGWISEDASTYYKKGIEASMNFIADNTPDKEEYTHGRTITQEYIQEYLAQPVIQLSGDKEKDLEMILLQRYLASFLQHPYDAYYDYRRTGYPVLPINPSTNLNTEKNKIPTRWMYPEAEFSYNPDNANEAVQRQYNGSDDVNKLMWILQ
# Assays:
# Experiment in all cases: glycan array binding signal (z-score within array); higher = stronger binding
# Conditions in all cases: glycan notation: IUPAC condensed, linker removed
# Neu5Ac(a2-8)Neu5Ac = target: Neu5Ac(a2-8)Neu5Ac
# Procedure, shortened: (§1)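 The Consortium for Functional Glycomics database supplied 3228 glycan arrays, of which those lacking an available protein sequence were dropped. The binding signal, a within-array Z-score, was averaged across arrays of the same protein sequence and across linkers. Negative scores can be read as non-binding.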
# [1] = target: Neu5Ac(a2-8)Neu5Ac(a2-3)Gal(b1-3)GalNAc(b1-4)[Neu5Ac(a2-3)]Gal(b1-4)Glc
# Procedure, shortened: as §1
# [2] = target: Neu5Ac(a2-8)Neu5Ac(a2-3)Gal(b1-3)GalNAc(b1-4)[Neu5Ac(a2-8)Neu5Ac(a2-3)]Gal(b1-4)Glc
# Procedure, shortened: as §1
# [3] = target: Neu5Ac(a2-8)Neu5Ac(a2-3)Gal(b1-4)Glc
# Procedure, shortened: as §1
# [4] = target: Neu5Ac(a2-8)Neu5Ac(a2-3)Gal(b1-4)GlcNAc
# Procedure, shortened: as §1
# [5] = target: Neu5Ac(a2-8)Neu5Ac(a2-3)[Gal(b1-3)GalNAc(b1-4)]Gal(b1-4)Glc
# Procedure, shortened: as §1
# [6] = target: Neu5Ac(a2-8)Neu5Ac(a2-3)[GalNAc(b1-4)]Gal(b1-4)Glc
# Procedure, shortened: as §1
# [7] = target: Neu5Ac(a2-8)Neu5Ac(a2-8)Neu5Ac
# Procedure, shortened: as §1
# [8] = target: Neu5Ac(a2-8)Neu5Ac(a2-8)Neu5Ac(a2-3)Gal(b1-4)Glc
# Procedure, shortened: as §1
# [9] = target: Neu5Ac(a2-8)Neu5Ac(a2-8)Neu5Ac(a2-3)[Gal(b1-3)GalNAc(b1-4)]Gal(b1-4)Glc
# Procedure, shortened: as §1
# [10] = target: Neu5Ac(a2-8)Neu5Ac(a2-8)Neu5Ac(a2-3)[GalNAc(b1-4)]Gal(b1-4)Glc
# Procedure, shortened: as §1
# [11] = target: Neu5Ac(a2-8)Neu5Ac(a2-8)Neu5Ac(a2-8)Neu5Ac(a2-3)[GalNAc(b1-4)]Gal(b1-4)Glc
# Procedure, shortened: as §1
# [12] = target: Neu5Ac(a2-8)Neu5Gc(a2-3)Gal(b1-4)GlcNAc
# Procedure, shortened: as §1
# [13] = target: Neu5Ac(b2-6)Gal(b1-4)GlcNAc
# Procedure, shortened: as §1
# Neu5Ac(b2-6)GalNAc = target: Neu5Ac(b2-6)GalNAc
# Procedure, shortened: as §1
# [14] = target: Neu5Ac9Ac(a2-3)Gal(b1-3)GlcNAc
# Procedure, shortened: as §1
# [15] = target: Neu5Ac9Ac(a2-3)Gal(b1-4)GlcNAc
# Procedure, shortened: as §1
# [16] = target: Neu5Ac9Ac(a2-6)Gal(b1-4)GlcNAc
# Procedure, shortened: as §1
# [17] = target: Neu5Gc(a2-3)Gal(b1-3)GlcNAc
# Procedure, shortened: as §1
# [18] = target: Neu5Gc(a2-3)Gal(b1-3)[Fuc(a1-4)]GlcNAc
# Procedure, shortened: as §1
# Neu5Gc(a2-3)Gal(b1-4)Glc = target: Neu5Gc(a2-3)Gal(b1-4)Glc
# Procedure, shortened: as §1
# [19] = target: Neu5Gc(a2-3)Gal(b1-4)GlcNAc
# Procedure, shortened: as §1
# [20] = target: Neu5Gc(a2-3)Gal(b1-4)GlcNAc(b1-3)Gal(b1-4)GlcNAc(b1-2)Man(a1-3)[Neu5Gc(a2-3)Gal(b1-4)GlcNAc(b1-3)Gal(b1-4)GlcNAc(b1-2)Man(a1-6)]Man(b1-4)GlcNAc(b1-4)GlcNAc
# Procedure, shortened: as §1
# [21] = target: Neu5Gc(a2-3)Gal(b1-4)[Fuc(a1-3)]GlcNAc
# Procedure, shortened: as §1
# [22] = target: Neu5Gc(a2-6)Gal(b1-4)GlcNAc
# Procedure, shortened: as §1
# Neu5Gc(a2-6)GalNAc = target: Neu5Gc(a2-6)GalNAc
# Procedure, shortened: as §1
# [23] = target: Neu5Gc(a2-8)Neu5Ac(a2-3)Gal(b1-4)GlcNAc
# Procedure, shortened: as §1
# [24] = target: Neu5Gc(a2-8)Neu5Gc(a2-3)Gal(b1-4)GlcNAc
# Procedure, shortened: as §1
# [25] = target: Neu5Gc(a2-8)Neu5Gc(a2-3)Gal(b1-4)GlcNAc(b1-3)Gal(b1-4)GlcNAc
# Procedure, shortened: as §1
# [26] = target: Neu5Gc(a2-8)Neu5Gc(a2-6)Gal(b1-4)GlcNAc
# Procedure, shortened: as §1
# [27] = target: Neu5Gc(b2-6)Gal(b1-4)GlcNAc
# Procedure, shortened: as §1
binder,measurement,setting,value
B1,glycan array binding signal (z-score),Neu5Ac(a2-8)Neu5Ac,0.524
same,glycan array binding signal (z-score),[1],1.17
same,glycan array binding signal (z-score),[2],-0.632
same,glycan array binding signal (z-score),[3],-0.724
same,glycan array binding signal (z-score),[4],-0.974
same,glycan array binding signal (z-score),[5],-1.18
same,glycan array binding signal (z-score),[6],2.14
same,glycan array binding signal (z-score),[7],0.102
same,glycan array binding signal (z-score),[8],-0.141
same,glycan array binding signal (z-score),[9],-0.185
same,glycan array binding signal (z-score),[10],0.616
same,glycan array binding signal (z-score),[11],1.51
same,glycan array binding signal (z-score),[12],-0.174
same,glycan array binding signal (z-score),[13],-0.954
same,glycan array binding signal (z-score),Neu5Ac(b2-6)GalNAc,-0.441
same,glycan array binding signal (z-score),[14],-0.356
same,glycan array binding signal (z-score),[15],-0.209
same,glycan array binding signal (z-score),[16],-0.972
same,glycan array binding signal (z-score),[17],-0.321
same,glycan array binding signal (z-score),[18],0.879
same,glycan array binding signal (z-score),Neu5Gc(a2-3)Gal(b1-4)Glc,-1.1
same,glycan array binding signal (z-score),[19],-0.666
same,glycan array binding signal (z-score),[20],-0.023
same,glycan array binding signal (z-score),[21],-1.07
same,glycan array binding signal (z-score),[22],0.462
same,glycan array binding signal (z-score),Neu5Gc(a2-6)GalNAc,-0.166
same,glycan array binding signal (z-score),[23],-0.268
same,glycan array binding signal (z-score),[24],-0.264
same,glycan array binding signal (z-score),[25],-1.65
same,glycan array binding signal (z-score),[26],0.06
same,glycan array binding signal (z-score),[27],-0.25

# 2 entries drawn at random from those above, as already listed:
binder,measurement,setting,value
B1,glycan array binding signal (z-score),Neu5Ac(a2-8)Neu5Ac,0.524
same,glycan array binding signal (z-score),[21],-1.07

# Reference: the supplement of paper PMC8728848
